Experimental data published in PMC13279931.

Biological target: T1, HA-Toc75 (Toc75 with an HA epitope tag inserted between E142 and E143 of the precursor) (A. thaliana) (UniProt Q9STE8)
T1 sequence: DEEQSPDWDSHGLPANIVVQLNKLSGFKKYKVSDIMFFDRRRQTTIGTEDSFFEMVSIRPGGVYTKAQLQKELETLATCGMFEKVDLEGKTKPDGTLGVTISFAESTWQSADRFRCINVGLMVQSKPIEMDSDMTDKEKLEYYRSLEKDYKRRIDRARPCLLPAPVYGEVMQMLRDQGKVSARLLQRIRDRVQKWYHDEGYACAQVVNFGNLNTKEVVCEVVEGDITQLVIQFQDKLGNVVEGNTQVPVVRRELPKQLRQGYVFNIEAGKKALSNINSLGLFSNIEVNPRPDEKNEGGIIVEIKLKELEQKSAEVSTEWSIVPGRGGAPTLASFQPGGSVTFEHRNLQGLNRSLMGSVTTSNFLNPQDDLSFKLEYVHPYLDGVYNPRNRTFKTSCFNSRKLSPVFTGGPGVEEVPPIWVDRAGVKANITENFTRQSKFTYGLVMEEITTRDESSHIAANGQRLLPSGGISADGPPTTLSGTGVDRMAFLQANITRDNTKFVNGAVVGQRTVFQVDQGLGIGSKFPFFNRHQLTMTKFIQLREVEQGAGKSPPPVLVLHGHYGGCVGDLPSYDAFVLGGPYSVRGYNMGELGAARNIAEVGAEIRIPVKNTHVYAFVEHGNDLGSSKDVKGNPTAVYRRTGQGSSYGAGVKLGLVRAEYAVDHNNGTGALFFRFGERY
Assay: affinity purification with mass spectrometry; label-free quantification of HA-affinity purified HA-Toc75 preparations against a wild-type negative control (n = 3), in-solution digestion, LC-MS/MS

B1: OEP80 (Toc75-V) (protein, UniProt Q9C5J8 1-732)
chain: MHCHNDDVRFSSSSIRIHSPSPKEQHSLLTNLQSCSKTFVSHLSNTRNSLNQMLQSLKNRHTPPPRSVRRPNLPTQMLNSVTQLMIGKSSPISLSLIQSTQFNWSESRDENVETIRGLSSPLLCCASLSLTRPNESTQSVEGKDTVQQQKGHSVSRNAEERVLISEVLVRTKDGEELERKDLEMEALAALKACRANSALTIREVQEDVHRIIESGYFCSCTPVAVDTRDGIRLMFQVEPNQEFRGLVCENANVLPSKFIHEAFRDGFGKVINIKRLEEAITSINGWYMERGLFGIVSDIDTLSGGIVRLQVAEAEVNNISIRFLDRKTGEPTKGKTSPETILRQLTTKKGQVYSMLQGKRDVDTVLAMGIMEDVSIIPQPAGDSGKVDLIMNCVERPSGGFSAGGGISSGITSGPLSGLIGSFAYSHRNLFGRNQKLNVSLERGQIDSIFRINYTDPWIEGDDKRTSRSIMVQNSRTPGNLVHGNQPDNSSLTIGRVTAGVEYSRPFRPKWNGTAGLIFQHAGARDEQGNPIIKDFYSSPLTASGKPHDETMLAKLESIYTGSGDQGSTMFAFNMEQGLPVLPEWLCFNRVTGRARKGIHIGPARFLFSLSGGHVVGKFSPHEAFVIGGTNSVRGYEEGAVGSGRSYVVGSGELSFPVRGPVEGVIFTDYGTDMGSGSTVPGDPAGARLKPGSGYGYGLGVRVDSPLGPLRLEYAFNDQHAGRFHFGVGLRN
binding: binds

No constants are given. Whether binding was seen depends on the method and setting. In cells and extracts the contact can be indirect. A yes stands for co-enrichment or nearness to the bait. Other partners may have been found. Tags and fused reporters may be left off the sequences shown.
